Measured values: PubChem BioAssay AID256 (DTP/NCI, 2004)
The list does not hold the whole screen: it gathers tests that were run many times, whatever their T/C, doses with no T/C, and many T/C values between a quarter and a half above the control. Other doses and runs of a compound stand elsewhere. T/C is the treated group as % of the vehicle group. Some entries give survivors of the animals treated and no T/C: the source files T/C as zero there, which appears to mark a toxic dose or a test without result, not a measured value. Some doses without a T/C left all or most animals alive at the check, yet need not have been tolerated: survival well below the control is almost never listed, so the zero probably covers shortened survival too. Counts of survivors are from the toxicity check (mostly the fifth day) where no day follows; animals may have died later. Schedule codes are those of the source, read here as Q, the interval in days (D) or hours (H), X, the number of doses. Some entries hold several experiments; the results are listed from low to high. Where survival is the endpoint, the PubChem record calls one and a half times the control and up active, and a quarter to a half above the control has no call in these data; cut-offs in other NCI protocols can differ. Some T/C values carry the count of animals alive at the toxicity check (mostly the fifth day); without a count, all were alive then.

System: CD2F1 mice, L1210 leukemia ip, survival T/C
Test: NCI In Vivo Anticancer Drug Screen. Data for tumor model L1210 Leukemia (intraperitoneal) in CD2F1 (CDF1) mice
Details: higher T/C = longer survival
Outline: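 Compound-dosed mice with transplantable tumor versus matched vehicle controls; endpoint ratio T/C reported.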

[1] = T/C endpoint: mean survival time, dose: 100.0 mg/kg/injection, schedule: Q04DX002 (ip), vehicle: saline with Tween-80
[2] = T/C endpoint: mean survival time, dose: 200.0 mg/kg/injection, schedule: Q04DX003 (ip), vehicle: saline
[3] = T/C endpoint: mean survival time, dose: 400.0 mg/kg/injection, schedule: Q01DX001 (ip), vehicle: saline
[4] = T/C endpoint: mean survival time, dose: 75.0 mg/kg/injection, schedule: Q01DX001 (ip), vehicle: saline
[5] = T/C endpoint: mean survival time, dose: 300.0 mg/kg/injection, schedule: Q01DX001 (ip), vehicle: saline
[6] = T/C endpoint: mean survival time, dose: 400.0 mg/kg/injection, schedule: Q04DX003 (ip), vehicle: saline
[7] = T/C endpoint: mean survival time, dose: 12.5 mg/kg/injection, schedule: Q01DX009 (ip), vehicle: saline
[8] = T/C endpoint: mean survival time, dose: 400.0 mg/kg/injection, schedule: Q01DX009 (ip), vehicle: saline with Tween-80
[9] = T/C endpoint: mean survival time, dose: 200.0 mg/kg/injection, schedule: Q01DX009 (ip), vehicle: saline with Tween-80
[10] = T/C endpoint: mean survival time, dose: 100.0 mg/kg/injection, schedule: Q01DX009 (ip), vehicle: saline with Tween-80
[11] = T/C endpoint: mean survival time, dose: 200.0 mg/kg/injection, schedule: Q01DX001 (ip), vehicle: saline with Tween-80
[12] = T/C endpoint: mean survival time, dose: 400.0 mg/kg/injection, schedule: Q01DX001 (ip), vehicle: saline with Tween-80

## CN(C)C(=O)Sc1ccc(N(C)C)cc1
[1]
  T/C: 125 % of control

## C[N+](C)(C)c1cc2c(nn1)Nc1ccccc1S2
[2]
  survivor count: 0 of 6

## NC(N)=N/N=C\c1ccc2ccccc2c1
[1]
  survivor count: 0 of 3

## Nc1ccc(-c2ccccc2-c2ccccc2)cc1
T/C endpoint: mean survival time, dose: 400.0 mg/kg/injection, schedule: Q01DX009 (ip), vehicle: acetone
  survivor count: 2 of 6

## FC1CC=C(S)CC1 (stereo unspecified)
T/C endpoint: mean survival time, dose: 100.0 mg/kg/injection, schedule: Q01DX001 (ip), vehicle: saline
  survivor count: 1 of 6
T/C endpoint: mean survival time, dose: 200.0 mg/kg/injection, schedule: Q01DX001 (ip), vehicle: saline
  survivor count: 0 of 6
[3]
  survivor count: 1 of 6

## C#CC(O)CCC (stereo unspecified)
[3]
  survivor count: 0 of 3

## COC1OC(COC(=O)c2ccc([N+](=O)[O-])cc2)C(SC#N)C1O (stereo unspecified)
[4]
  survivor count: 3 of 6
[5]
  survivor count: 0 of 6

## COC(=O)C#CBr
T/C endpoint: mean survival time, dose: 25.0 mg/kg/injection, schedule: Q04DX003 (ip), vehicle: other
  survivor count: 0 of 6
T/C endpoint: mean survival time, dose: 100.0 mg/kg/injection, schedule: Q04DX003 (ip), vehicle: other
  survivor count: 0 of 6
T/C endpoint: mean survival time, dose: 200.0 mg/kg/injection, schedule: Q04DX003 (ip), vehicle: other
  survivor count: 0 of 6
T/C endpoint: mean survival time, dose: 400.0 mg/kg/injection, schedule: Q04DX003 (ip), vehicle: other
  survivor count: 0 of 6

## NC(=S)NC(=S)Nc1ccc(Cl)cc1
[1]
  T/C: 125 % of control [2 of 3 alive]
T/C endpoint: mean survival time, dose: 200.0 mg/kg/injection, schedule: Q04DX002 (ip), vehicle: saline with Tween-80
  survivor count: 0 of 3 and 1 of 3
T/C endpoint: mean survival time, dose: 400.0 mg/kg/injection, schedule: Q04DX002 (ip), vehicle: saline with Tween-80
  survivor count: 0 of 3

## CCCCNP1(NCCCC)=NP(NCCCC)(NCCCC)=NP(NCCCC)(NCCCC)=NP(NCCCC)(NCCCC)=N1
T/C endpoint: median survival time, dose: 100.0 mg/kg/injection, schedule: Q01DX009 (ip), vehicle: saline with Tween-80
  survivor count: 2 of 6
T/C endpoint: median survival time, dose: 200.0 mg/kg/injection, schedule: Q01DX009 (ip), vehicle: saline with Tween-80
  survivor count: 0 of 6

## COc1ccc2c(c1)C1C=[S+]c3ccccc3C1N2 (stereo unspecified)
T/C endpoint: mean survival time, dose: 100.0 mg/kg/injection, schedule: Q04DX003 (ip), vehicle: saline
  survivor count: 5 of 6
[2]
  survivor count: 1 of 6
[6]
  survivor count: 0 of 6

## CN(C)CC(C)(C)C(=O)c1ccc(Cl)cc1
T/C endpoint: mean survival time, dose: 400.0 mg/kg/injection, schedule: Q04DX002 (ip), vehicle: saline
  survivor count: 0 of 3

## ClCCN(CC#CCCCC#CCN(CCCl)CCCl)CCCl
[7]
  T/C: 140 % of control
  survivor count: 3 of 6
T/C endpoint: mean survival time, dose: 25.0 mg/kg/injection, schedule: Q01DX009 (ip), vehicle: saline
  T/C: 140 % of control
T/C endpoint: mean survival time, dose: 100.0 mg/kg/injection, schedule: Q01DX009 (ip), vehicle: saline
  survivor count: 1 of 6

## C=C1C[C@@H](O)C[C@@]2(C)C[C@@H]3OC(=O)C(=C)[C@@H]3C[C@H]12
[8]
  survivor count: 0 of 6

## CCOC(=O)c1ccc(NC(=O)Nc2nccs2)cc1
[9]
  T/C: 125 % of control
[8]
  survivor count: 2 of 6

## N=C1CCCS1
T/C endpoint: median survival time, dose: 200.0 mg/kg/injection, schedule: Q01DX009 (ip), vehicle: saline
  survivor count: 0 of 6
T/C endpoint: median survival time, dose: 400.0 mg/kg/injection, schedule: Q01DX009 (ip), vehicle: saline
  survivor count: 0 of 6

## Nc1cccc2scnc12
[8]
  survivor count: 4 of 6

## CC(=O)c1ccc(N=NC2C(=O)N(c3ccccc3)N=C2C)cc1 (stereo unspecified)
[10]
  survivor count: 6 of 6

## C=CCOCC(O)CN1CCCCC1 (stereo unspecified)
T/C endpoint: mean survival time, dose: 200.0 mg/kg/injection, schedule: Q01DX009 (ip), vehicle: saline
  survivor count: 0 of 3

## O=C1OC(c2ccccc2)(C2(c3ccccc3)OC(=O)c3ccccc32)c2ccccc21 (stereo unspecified)
T/C endpoint: mean survival time, dose: 200.0 mg/kg/injection, schedule: Q04DX003 (ip), vehicle: saline with Tween-80
  survivor count: 6 of 6
T/C endpoint: mean survival time, dose: 400.0 mg/kg/injection, schedule: Q04DX003 (ip), vehicle: saline with Tween-80
  survivor count: 6 of 6

## O=C1c2ccccc2C(=O)c2c(O)c(S(=O)(=O)O)cc(O)c21
[6]
  survivor count: 3 of 6

## NCS(=O)(=O)O
[11]
  survivor count: 1 of 3
[12]
  survivor count: 0 of 3

## O=C(CBr)c1cccc(OC(=O)c2ccccc2)c1
T/C endpoint: mean survival time, dose: 50.0 mg/kg/injection, schedule: Q01DX009 (ip), vehicle: saline with Tween-80
  survivor count: 2 of 6

## OC(Cc1cccc(/C=N/N2CCOCC2)n1)(C(F)(F)F)C(F)(F)F
T/C endpoint: mean survival time, dose: 100.0 mg/kg/injection, schedule: Q04DX003 (ip), vehicle: saline with Tween-80
  survivor count: 6 of 6

## COc1ccc(C(Cn2ccnc2)Sc2ccc(Cl)c(Cl)c2)cc1 (stereo unspecified)
[9]
  survivor count: 0 of 6

## O=C(CCBr)NCNC(=O)CCBr
[10]
  T/C: 129 % of control

## Cc1cc2c(c3oc(C4(C)OC4C4OC4C)cc(=O)c13)C(=O)c1c(O)c(C3CC(C)(N(C)C)C(O)C(C)O3)cc(C3CC(N(C)C)C(O)C(C)O3)c1C2=O (stereo unspecified)
T/C endpoint: mean survival time, dose: 80.0 micrograms/kg/injection, schedule: Q01DX009 (ip), vehicle: water
  survivor count: 7 of 10
T/C endpoint: mean survival time, dose: 160.0 micrograms/kg/injection, schedule: Q01DX009 (ip), vehicle: water
  survivor count: 0 of 10

## CCC[CH2][Sn]([CH2]C)([CH2]C)[O]C(C)=O
T/C endpoint: mean survival time, dose: 10.0 mg/kg/injection, schedule: Q01DX009 (ip), vehicle: saline with Tween-80
  survivor count: 0 of 6

## CCOc1cccc(Cc2cn(Cc3cccc(NC(=O)c4ccc(S(=O)(=O)F)cc4)c3)c(=O)[nH]c2=O)c1
T/C endpoint: mean survival time, dose: 300.0 mg/kg/injection, schedule: Q01DX001 (ip), vehicle: saline with Tween-80
  survivor count: 6 of 6

## CC1CC2CCC1(CO)CN2 (stereo unspecified)
[4]
  survivor count: 0 of 6
T/C endpoint: mean survival time, dose: 150.0 mg/kg/injection, schedule: Q01DX001 (ip), vehicle: saline
  survivor count: 0 of 6
[5]
  survivor count: 0 of 6

## O=C(Nc1ccc(N=C=S)cc1Cl)c1cc(Cl)cc(Cl)c1O
T/C endpoint: mean survival time, dose: 100.0 mg/kg/injection, schedule: Q01DX009 (ip), vehicle: Klucel (hydroxypropylcellulose) (HPC)
  survivor count: 0 of 6
T/C endpoint: mean survival time, dose: 200.0 mg/kg/injection, schedule: Q01DX009 (ip), vehicle: Klucel (hydroxypropylcellulose) (HPC)
  survivor count: 0 of 6 and 4 of 6

## CC1=Cc2ccc(C)cc2C(=O)C1=O
T/C endpoint: mean survival time, dose: 6.25 mg/kg/injection, schedule: Q04DX002 (ip), vehicle: saline with Tween-80
  survivor count: 1 of 3
T/C endpoint: mean survival time, dose: 100.0 mg/kg/injection, schedule: Q01DX001 (ip), vehicle: saline with Tween-80
  survivor count: 0 of 6
[11]
  survivor count: 0 of 6
[12]
  survivor count: 0 of 6

## COc1cc(/C=C\[N+](=O)[O-])c([N+](=O)[O-])cc1OCc1ccccc1
[12]
  survivor count: 0 of 6

## COc1ccc(C(N)=O)cc1N=NN(C)C
T/C endpoint: mean survival time, dose: 18.75 mg/kg/injection, schedule: Q01DX009 (ip), vehicle: Klucel (hydroxypropylcellulose) (HPC)
  T/C: 131 % of control
T/C endpoint: mean survival time, dose: 150.0 mg/kg/injection, schedule: Q01DX009 (ip), vehicle: Klucel (hydroxypropylcellulose) (HPC)
  survivor count: 3 of 6
T/C endpoint: mean survival time, dose: 300.0 mg/kg/injection, schedule: Q01DX009 (ip), vehicle: Klucel (hydroxypropylcellulose) (HPC)
  survivor count: 0 of 6
